Measurements reported in PubChem BioAssay AID602196 (INSERM, 2012).
Here is an unselected part of about 23,000 reagents. Over the whole deposit, 455 (2%) are marked active. 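Active includes both protection and sensitisation; some change values fall well beyond the stated -50 to +50 range.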 Entries without a mark were called inactive. Reagent sequences are not shown. Not stated in the record: the amount of reagent.

Aim: 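Knock-downs that protect lung cancer cells from cisplatin or sensitise them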
Cells: human A549 lung cancer cells
Reagent: siRNA pair against human genes
Duration: 48 h transfection before cisplatin; time from cisplatin to read-out not stated
Challenge: cisplatin at a dose killing half of control-siRNA cells; exact dose and duration not given
Measured: 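Cisplatin cell death as a shift from the 50% death seen with control siRNA; siRNAs toxic or growth-blocking alone scored 0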
Scale: two-siRNA summed score (-2 to +2): higher = both siRNAs protect from cisplatin killing; -2 means both sensitise; mean protection from cisplatin (shift in death) and protection from cisplatin (shift in death), siRNA C and protection from cisplatin (shift in death), siRNA D: higher = protection from cisplatin killing
Hit rule: 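siRNAs harmful alone (LDH or WST-1) get 0; others get +1 for less and -1 for more cisplatin killing; genes are active when the two siRNAs give the same sign, summing to ±2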
Calls: active = both siRNAs shift cisplatin killing the same way; inactive = no consistent shift, or siRNA harmful alone

gene symbol,two-siRNA summed score (-2 to +2),mean protection from cisplatin (shift in death) (%),"protection from cisplatin (shift in death), siRNA C (%)","protection from cisplatin (shift in death), siRNA D (%)"
BCAP31,0,-3.5,23.2,-30.1
RGL3,0,24,14.3,33.7
SLC44A1,0,9.9,9.2,10.5
RCN3,-1,-9.9,-11,-8.9
FAM182A,0,9.8,3.5,16
SHOC1,1,4.2,14.9,-6.4
MSRB3,0,5.4,14.6,-3.8
PIM1,1,7.1,25.4,-11.2
MMS19,0,11.2,8.5,13.8
SRGAP3,0,-0.6,-2.6,1.3
PDPR2P,0,-2.1,-4.6,0.4
LOC400842,1,10.2,14.4,6.1
KCNA7,-1,-13.2,-13.5,-12.9
LOC391123,1,14.2,4.3,24
SLC39A14,0,12.7,15.2,10.2
ZNF407,0,4,9.5,-1.6
BRK1,0,3.7,0.9,6.4
NFATC2IP,0,-0.5,-10,9
C9orf163,0,0.1,-12.7,12.8
ATP8A2,0,5.1,7.4,2.8
MIR600HG,0,-6,-1.8,-10.2
WDR93,0,3.5,14.4,-7.4
LOC401085,0,17.7,22.3,13
GSDMC,-1,-11.9,-16.9,-6.8
PNOC,0,-2.5,-5.5,0.4
SPOCK1,1,14.5,14.5,14.4
SEC31B,2 (active),23.2,23.7,22.8
GTF3C4,-1,6,31.7,-19.6
HMX1,1,12.5,13.5,11.4
PPA1,0,-1.8,7.3,-10.9
RAP1GAP2,0,7.1,16.9,-2.7
MT1X,1,15.5,8.8,22.1
POU3F3,0,16.9,20.7,13.1
PVALEF,0,-16.3,-20.1,-12.5
UCHL3,1,6.9,-8.2,22.1
ZNF648,0,7.2,9.9,4.5
NDST2,0,4.1,0.2,8.1
BARX2,1,18.3,26.5,10.2
DBI,-1,2.7,16.8,-11.5
LCE5A,0,8.2,5.5,10.9
CLHC1,0,6.4,8,4.8
TCEA3,0,1.2,4,-1.5
LOC442669,2 (active),19.6,14.1,25.1
GDF3,1,15,23.8,6.2
TBX19,0,-1.2,1.9,-4.3
OTOP1,0,-8,0.9,-17
SEC24B,0,-0.4,-4.2,3.3
LOC388278,0,2.1,2.2,1.9
GLIPR1,0,4.8,12.5,-2.8
LOC401103,0,6.1,11,1.1
LOC388227,0,-2.1,6.5,-10.8
CD59,0,18.1,14.8,21.5
LOC344178,0,-11.7,-12.8,-10.6
ZDHHC8BP,0,4.9,2.3,7.5
LOC400575,0,5.6,5.8,5.3
PLPPR4,2 (active),26,22,29.9
ZFP1,0,12.1,7.1,17

Laid out differently: 8 of the entries above
{"gene symbol": "UCHL3", "two-siRNA summed score (-2 to +2)": 1, "mean protection from cisplatin (shift in death) (%)": 6.9, "protection from cisplatin (shift in death), siRNA C (%)": -8.2, "protection from cisplatin (shift in death), siRNA D (%)": 22.1}
{"gene symbol": "ZNF648", "two-siRNA summed score (-2 to +2)": 0, "mean protection from cisplatin (shift in death) (%)": 7.2, "protection from cisplatin (shift in death), siRNA C (%)": 9.9, "protection from cisplatin (shift in death), siRNA D (%)": 4.5}
{"gene symbol": "NDST2", "two-siRNA summed score (-2 to +2)": 0, "mean protection from cisplatin (shift in death) (%)": 4.1, "protection from cisplatin (shift in death), siRNA C (%)": 0.2, "protection from cisplatin (shift in death), siRNA D (%)": 8.1}
{"gene symbol": "BARX2", "two-siRNA summed score (-2 to +2)": 1, "mean protection from cisplatin (shift in death) (%)": 18.3, "protection from cisplatin (shift in death), siRNA C (%)": 26.5, "protection from cisplatin (shift in death), siRNA D (%)": 10.2}
{"gene symbol": "DBI", "two-siRNA summed score (-2 to +2)": -1, "mean protection from cisplatin (shift in death) (%)": 2.7, "protection from cisplatin (shift in death), siRNA C (%)": 16.8, "protection from cisplatin (shift in death), siRNA D (%)": -11.5}
{"gene symbol": "LCE5A", "two-siRNA summed score (-2 to +2)": 0, "mean protection from cisplatin (shift in death) (%)": 8.2, "protection from cisplatin (shift in death), siRNA C (%)": 5.5, "protection from cisplatin (shift in death), siRNA D (%)": 10.9}
{"gene symbol": "CLHC1", "two-siRNA summed score (-2 to +2)": 0, "mean protection from cisplatin (shift in death) (%)": 6.4, "protection from cisplatin (shift in death), siRNA C (%)": 8, "protection from cisplatin (shift in death), siRNA D (%)": 4.8}
{"gene symbol": "TCEA3", "two-siRNA summed score (-2 to +2)": 0, "mean protection from cisplatin (shift in death) (%)": 1.2, "protection from cisplatin (shift in death), siRNA C (%)": 4, "protection from cisplatin (shift in death), siRNA D (%)": -1.5}
